# Measured values from patent US20090181025A1.
# Protein sequences, listed by entry. Tags and fused reporters are not part of them. Lines headed by an entry give the natural chain unless they say otherwise; changes in a name come on top. Residues count along the entry.
# UniProt P20491, residues 19-86: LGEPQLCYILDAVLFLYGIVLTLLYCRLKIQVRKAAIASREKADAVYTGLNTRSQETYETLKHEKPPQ
# UniProt B6A8R8: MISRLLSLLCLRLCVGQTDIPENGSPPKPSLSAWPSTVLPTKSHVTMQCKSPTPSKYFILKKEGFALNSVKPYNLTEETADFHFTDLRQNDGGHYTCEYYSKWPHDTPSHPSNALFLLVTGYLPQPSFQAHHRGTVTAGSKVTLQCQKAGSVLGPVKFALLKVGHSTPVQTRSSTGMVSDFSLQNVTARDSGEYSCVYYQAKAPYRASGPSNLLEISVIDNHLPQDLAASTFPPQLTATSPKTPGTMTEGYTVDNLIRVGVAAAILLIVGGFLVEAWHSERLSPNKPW
# No constants are given. Whether binding was seen depends on the method and setting. In cells and extracts the contact can be indirect. Some entries that bind do so weakly or less than the wild type.
# Molecular target: Flag tagged FcRγ chain expressed in B300.19 transfectants (UniProt P20491)
# Test: co-immunoprecipitation from B300.19 transfectants (1% digitonin lysate): anti-Flag IP, immunoblot with anti-mTARM #6
substance,measurement,value
"mouse TARM protein, isoform m1, expressed on B300.19 cells (from UniProt B6A8R8 17-288) (receptor)",binding,binds
